According to paper PMC2680039:
For at least one entry, the source does not settle the construct or the ends of the probe. Where cells or extracts were used, other partners may take part. For part of these data: Negatives hold for the conditions tested.

Key:
[1] = system: ΔNp63α (human (HaCaT keratinocytes)); assay: competition with a labelled probe; details: EMSA: 5 µg HaCaT nuclear extract, end-labeled ds oligo, 5% native PAGE in 1x TBE at room temperature, binding buffer, salt and pH not given (cited), protein in an extract
[2] = system: ΔNp63α (human (HaCaT keratinocytes)); assay: EMSA supershift; details: anti-ΔNp63 RR-14 or H-129 supershift, HaCaT nuclear extract; EMSA: 5 µg HaCaT nuclear extract, end-labeled ds oligo, 5% native PAGE in 1x TBE at room temperature; binding buffer, salt and pH not given (cited); protein in an extract

Does “GGCGGCCTTCAGCCTATATCAACACAT (double strand) [K5HsII Mut (MT)]” bind ([1]; unlabeled MT does not compete with labeled K5HsII, label: unlabeled competitor)?
Result: no binding

Which results are given for “GGCGGCCTTCAGCCTGTATCAACACAT (double strand) [K5HsII (WT)]”?
binding result ([1]; unlabeled WT competes with labeled K5HsII): binds; binding result [2]: binds
